Results as given in patent US8299048B2, “Hexahydrocyclopentyl[f]indazole sulfonamides and derivatives thereof as selective glucocorticoid receptor modulators” (Merck Sharp & Dohme Corp., priority 2008, dated 2012).
Some of these results come from one statement about several compounds together.

Target: T1, glucocorticoid receptor (Homo sapiens, UniProt P04150)
T1 construct: endogenous in cells
T1 sequence (P04150 1-777): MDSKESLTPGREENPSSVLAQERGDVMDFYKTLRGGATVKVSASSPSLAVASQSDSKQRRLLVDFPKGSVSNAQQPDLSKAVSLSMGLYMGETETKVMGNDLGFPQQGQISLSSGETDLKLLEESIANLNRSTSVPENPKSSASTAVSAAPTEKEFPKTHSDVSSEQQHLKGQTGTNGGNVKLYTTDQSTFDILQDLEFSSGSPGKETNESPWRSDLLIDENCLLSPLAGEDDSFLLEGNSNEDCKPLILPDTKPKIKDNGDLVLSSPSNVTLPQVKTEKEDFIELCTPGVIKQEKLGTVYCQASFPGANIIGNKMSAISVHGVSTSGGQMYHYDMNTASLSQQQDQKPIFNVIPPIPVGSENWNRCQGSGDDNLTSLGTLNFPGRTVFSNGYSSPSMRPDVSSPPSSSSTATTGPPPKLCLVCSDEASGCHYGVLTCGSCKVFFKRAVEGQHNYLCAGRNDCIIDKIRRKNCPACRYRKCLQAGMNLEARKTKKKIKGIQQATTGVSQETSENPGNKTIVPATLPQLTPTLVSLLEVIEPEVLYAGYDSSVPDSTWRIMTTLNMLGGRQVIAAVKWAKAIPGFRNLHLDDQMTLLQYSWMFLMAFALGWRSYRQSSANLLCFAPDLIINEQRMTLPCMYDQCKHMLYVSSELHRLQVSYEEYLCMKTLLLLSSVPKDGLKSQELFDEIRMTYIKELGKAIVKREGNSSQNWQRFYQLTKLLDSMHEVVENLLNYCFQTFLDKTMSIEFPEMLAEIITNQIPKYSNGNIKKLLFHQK
Assay: Ligand binding assay (GR BIND)
Conditions: displacement of 3H-DEX, MDA-MB-453 cell lysate, DEX as reference
Method: • Materials: • Binding Buffer: TEGM (10 mM Tris-HCl, 1 mM EDTA, 10% glycerol, 1 mM beta-mecaptoethanol, 10 mM Sodium Molybdate, pH 7.2) • 50% HAP Slurry: Calbiochem Hydroxylapatite, Fast Flow, in 10 mM Tris, pH 8.0 and 1 mM EDTA. • Wash Buffer: 40 mM Tris, pH7.5, 100 mM KCl, 1 mM EDTA and 1 mM EGTA.
Phenol red-free Trypsin-EDTA is diluted in the same PBS1:10. The cell layers are rinsed with 1× Trypsin, extra Trypsin is poured out, and the cell layers are incubated at 37° C. for ˜2 min. The flask is tapped and checked for signs of cell detachment. Once the cells begin to slide off the flask, the complete media is added. The cells are counted at this point, then diluted to the appropriate concentration and split into flasks or dishes for further culturing (Usually 1:3 to 1:6 dilution).
When the cells are 70 to 85% confluent, they are detached as described above, and collected by centrifuging at 1000 g for 10 minutes at 4° C. The cell pellet is washed twice with TEGM (10 mM Tris-HCl, 1 mM EDTA, 10% glycerol, 1 mM beta-mercaptoethanol, 10 mM Sodium Molybdate, pH 7.2). After the final wash, the cells are resuspended in TEGM at a concentration of 10^7 cells/mL. The cell suspension is snap frozen in liquid nitrogen or ethanol/dry ice bath and transferred to −80° C. freezer on dry ice. Before setting up the binding assay, the frozen samples are left on ice-water to just thaw (˜1 hr). Then the samples are centrifuged at 12,500 g to 20,000 g for 30 min at 4° C. The supernatant is used to set-up assay right away. If using 50 μL of supernatant, the test compound can be prepared in 50 μL of the TEGM buffer.
1×TEGM buffer is prepared, and the isotope-containing assay mixture is prepared in the following order: EtOH (2% final concentration in reaction), 3H-DEX (Amersham Biosciences) and 1×TEGM. [e.g. For 100 samples, 200 μL (100×2) of EtOH+4.25 μL of 1:10 ^3H—Dex stock+2300 μL (100×23) 1×TEGM]. The compound is serially diluted, e.g., if starting final conc. is 1 μM, and the compound is in 25 μL of solution, for duplicate samples, 75 μL of 4×1 μM solution is made and 3 μL of 100 μM is added to 72 μL of buffer, and 1:5 serial dilution.
25 μL of ^3H-DEX (6 nM) trace and 25 μL compound solution are first mixed together, followed by addition of 50 μL receptor solution. The reaction is gently mixed, spun briefly at about 200 rpm and incubated at 4° C. overnight. 100 μL of 50% HAP slurry is prepared and added to the incubated reaction which is then vortexed and incubated on ice for 5 to 10 minutes. The reaction mixture is vortexed twice more to resuspend HAP while incubating reaction. The samples in 96-well format are then washed in wash buffer using The FilterMate™ Universal Harvester plate washer (Packard). The washing process transfers HAP pellet containing ligand-bound expressed receptor to Unifilter-96 GF/B filter plate (Packard). The HAP pellet on the filter plate is incubated with 50 μL of MICROSCINT (Packard) scintillint for 30 minutes before being counted on the TopCount microscintillation counter (Packard). […] are calculated using DEX as a reference.

SMILES	IC50 [µM]
C[C@]12Cc3cnn(-c4ccc(F)cc4)c3C=C1CC[C@@H]2CN(CC#N)S(=O)(=O)c1ccccc1F [Example 43, N-(cyanomethyl)-2-fluoro-N-{[(4αR,5S)-1-(4-fluorophenyl)-4α-methyl-1,4,4α,5,6,7-hexahydrocyclopenta[f]indazol-5-yl]methyl}benzenesulfonamide]	< 1
C[C@]12Cc3cnn(-c4ccc(F)cc4)c3C=C1CC[C@@H]2CN(CC#N)S(=O)(=O)c1cc(F)cc(F)c1 [Example 44, N-(cyanomethyl)-3,5-difluoro-N-{[(4αR,5S)-1-(4-fluorophenyl)-4α-methyl-1,4,4α,5,6,7-hexahydrocyclopenta[f]indazol-5-yl]methyl}benzenesulfonamide]	< 1
C[C@]12Cc3cnn(-c4ccc(F)cc4)c3C=C1CC[C@@H]2CN(CC#N)S(=O)(=O)c1ccc(Oc2ccccn2)cc1 [Example 45, N-(cyanomethyl)-N-{[(4αR,5S)-1-(4-fluorophenyl)-4α-methyl-1,4,4α,5,6,7-hexahydrocyclopenta[f]indazol-5-yl]methyl}-4-(pyridin-2-yloxy)benzenesulfonamide]	< 1
C[C@]12Cc3cnn(-c4ccc(F)cc4)c3C=C1CC[C@@H]2CN(CC#N)S(=O)(=O)c1ccc(F)cc1 [Example 46, N-(cyanomethyl)-4-fluoro-N-{[(4αR,5S)-1-(4-fluorophenyl)-4α-methyl-1,4,4α,5,6,7-hexahydrocyclopenta[f]indazol-5-yl]methyl}benzenesulfonamide]	< 1
C[C@]12Cc3cnn(-c4ccc(F)cc4)c3C=C1CC[C@@H]2CN(CC#N)S(=O)(=O)c1cc(F)c(F)cc1F [Example 47, N-(cyanomethyl)-2,4,5-trifluoro-N-{[(4αR,5S)-1-(4-fluorophenyl)-4α-methyl-1,4,4α,5,6,7-hexahydrocyclopenta[f]indazol-5-yl]methyl}benzenesulfonamide]	< 1
C[C@]12Cc3cnn(-c4ccc(F)cc4)c3C=C1CC[C@@H]2CN(CC#N)S(=O)(=O)Cc1ccccc1 [Example 48, N-(cyanomethyl)-N-{[(4αR,5S)-1-(4-fluorophenyl)-4α-methyl-1,4,4α,5,6,7-hexahydrocyclopenta[f]indazol-5-yl]methyl}-1-phenylmethanesulfonamide]	< 1
Cc1ccccc1S(=O)(=O)N(CC#N)C[C@H]1CCC2=Cc3c(cnn3-c3ccc(F)cc3)C[C@@]21C [Example 49, N-(cyanomethyl)-N-{[(4αR,5S)-1-(4-fluorophenyl)-4α-methyl-1,4,4α,5,6,7-hexahydrocyclopenta[f]indazol-5-yl]methyl}-2-methylbenzenesulfonamide]	< 1
C[C@]12Cc3cnn(-c4ccc(F)cc4)c3C=C1CC[C@@H]2CN(CC#N)S(=O)(=O)c1ccccc1Cl [Example 50, 2-chloro-N-(cyanomethyl)-N-{[(4αR,5S)-1-(4-fluorophenyl)-4α-methyl-1,4,4α,5,6,7-hexahydrocyclopenta[f]indazol-5-yl]methyl}benzenesulfonamide]	< 1
C[C@]12Cc3cnn(-c4ccc(F)cc4)c3C=C1CC[C@@H]2CN(CC#N)S(=O)(=O)c1ccc(F)cc1F [Example 51, N-(cyanomethyl)-2,4-difluoro-N-{[(4αR,5S)-1-(4-fluorophenyl)-4α-methyl-1,4,4α,5,6,7-hexahydrocyclopenta[f]indazol-5-yl]methyl}benzenesulfonamide]	< 1
Cc1nn(C)c(Cl)c1S(=O)(=O)N(CC#N)C[C@H]1CCC2=Cc3c(cnn3-c3ccc(F)cc3)C[C@@]21C [Example 52, 5-chloro-N-(cyanomethyl)-N-{[(4αR,5S)-1-(4-fluorophenyl)-4α-methyl-1,4,4α,5,6,7-hexahydrocyclopenta[f]indazol-5-yl]methyl}-1,3-dimethyl-1H-pyrazole-4-sulfonamide]	< 1
C[C@]12Cc3cnn(-c4ccc(F)cc4)c3C=C1CC[C@@H]2CN(CC#N)S(=O)(=O)c1ccccc1-c1ccccc1 [Example 53, N-(cyanomethyl)-N-{[(4αR,5S)-1-(4-fluorophenyl)-4α-methyl-1,4,4α,5,6,7-hexahydrocyclopenta[f]indazol-5-yl]methyl}biphenyl-2-sulfonamide]	< 1
C[C@]12Cc3cnn(-c4ccc(F)cc4)c3C=C1CC[C@@H]2CN(CC#N)S(=O)(=O)c1ccccc1C(F)(F)F [Example 54, N-(cyanomethyl)-N-{[(4αR,5S)-1-(4-fluorophenyl)-4α-methyl-1,4,4α,5,6,7-hexahydrocyclopenta[f]indazol-5-yl]methyl}-2-(trifluoromethyl)benzenesulfonamide]	< 1
C[C@]12Cc3cnn(-c4ccc(F)cc4)c3C=C1CC[C@@H]2CN(CC#N)S(=O)(=O)c1ccccc1C#N [Example 55]	< 1
Cc1oncc1S(=O)(=O)N(CCO)C[C@H]1CCC2=Cc3c(cnn3-c3ccc(F)cc3)C[C@@]21C [Example 56, N-{[(4αR,5S)-1-(4-fluorophenyl)-4α-methyl-1,4,4α,5,6,7-hexahydrocyclopenta[f]indazol-5-yl]methyl}-N-(2-hydroxyethyl)-5-methylisoxazole-4-sulfonamide]	< 1
C[C@]12Cc3cnn(-c4ccc(F)cc4)c3C=C1CC[C@@H]2CN(CCO)S(=O)(=O)c1cc(Cl)c(Cl)s1 [Example 58, 4,5-dichloro-N-{[(4αR,5S)-1-(4-fluorophenyl)-4α-methyl-1,4,4α,5,6,7-hexahydrocyclopenta[f]indazol-5-yl]methyl}-N-(2-hydroxyethyl)thiophene-2-sulfonamide]	< 1
C[C@]12Cc3cnn(-c4ccc(F)cc4)c3C=C1CC[C@@H]2CN(CCO)S(=O)(=O)c1ccc(F)c(F)c1 [Example 59]	< 1
C[C@]12Cc3cnn(-c4ccc(F)cc4)c3C=C1CC[C@@H]2CN(CCO)S(=O)(=O)c1ccc(C#N)cc1Cl [Example 60, 2-chloro-4-cyano-N-{[(4αR,5S)-1-(4-fluorophenyl)-4α-methyl-1,4,4α,5,6,7-hexahydrocyclopenta[f]indazol-5-yl]methyl}-N-(2-hydroxyethyl)benezenesulfonamide]	< 1
C[C@]12Cc3cnn(-c4ccc(F)cc4)c3C=C1CC[C@@H]2CN(CCO)S(=O)(=O)c1cccc(Cl)c1Cl [Example 61, 2,3-dichloro-N-{[(4αR,5S)-1-(4-fluorophenyl)-4α-methyl-1,4,4α,5,6,7-hexahydrocyclopenta[f]indazol-5-yl]methyl}-N-(2-hydroxyethyl)benezenesulfonamide]	< 1
C[C@]12Cc3cnn(-c4ccc(F)cc4)c3C=C1CC[C@@H]2CN(CCO)S(=O)(=O)Cc1cccc(C(F)(F)F)c1 [Example 63, N-{[(4αR,5S)-1-(4-fluorophenyl)-4α-methyl-1,4,4α,5,6,7-hexahydrocyclopenta[f]indazol-5-yl]methyl}-N-(2-hydroxyethyl)-1-[3-(trifluoromethyl)phenyl]methanesulfonamide]	< 1
